Values from PubChem BioAssay AID504764 (Drosophila RNAi Screening Center, 2011)

Test: 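Genes whose knock-down alters Notch-dependent transcription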 (primary screen)
System: Drosophila Kc167 cells
Knock-down reagent: long dsRNA against Drosophila genes
Timing: about 5 days (4 days dsRNA, then 24 h after transfection)
Treatment: transfection of constitutively active membrane-tethered Notch lacking the extracellular domain, read 24 h later
Measurement: 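Firefly luciferase from an E(spl)m3 reporter with active Notch, plus control-promoter and uninduced reporter wells for normalisation; unnormalised counts, duplicate wells a and b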
Scale: induced reporter light, run 1, well a and induced reporter light, run 1, well b: higher = more light from the Notch target reporter with active Notch; control promoter light, run 1, well a and control promoter light, run 1, well b: higher = more light from the viral control promoter (cell number, transfection, viability); uninduced reporter light, run 1, well a: higher = more light from the Notch target reporter without active Notch
Rule for the call: 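Wells with low control signal or poorly matching duplicates excluded; duplicates averaged; per source plate, z beyond ±2 for induced/control log2 ratio or beyond ±1.8 for induced/uninduced marks a hit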
Calls: active = modifier hit (raised or lowered Notch signal); inactive = not a hit
The screen tested about 22,000 reagents; this is a random part of those that have a named target and a result. Of all reagents, 403 (1.9%) are marked active. 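Unnormalised raw counts per well; ratio z-scores behind the hit calls and whether each hit raises or lowers signal are not deposited.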 The numbers tell different reagents against one gene apart. Names joined by + are all predicted targets of the reagent. No sequences are given here. The record does not give: the amount of reagent.

target | dsRNA no. | induced reporter light, run 1, well a | induced reporter light, run 1, well b | control promoter light, run 1, well a | control promoter light, run 1, well b | uninduced reporter light, run 1, well a | activity call
mthl2 (methuselah-like 2) | 1 | 1.98e5 | 1.85e5 | 3.58e5 | 2.23e5 | 12990 | inactive
ppk16 (pickpocket 16) | 1 | 1.33e5 | 1.77e5 | 87075 | 1.06e5 | 21815 | inactive
CG2162 | 1 | 46180 | 54185 | 53855 | 13030 | 9320 | inactive
cora (coracle) | 1 | 84040 | 72310 | 99790 | 1.11e5 | 6970 | inactive
CG12355 | 1 | 1.57e5 | 2.04e5 | 2.98e5 | 2.33e5 | 13295 | inactive
CG12355 | 2 | 1.57e5 | 1.50e5 | 2.15e5 | 1.91e5 | 9085 | inactive
Fatp2 (Fatty acid transport protein 2) | 1 | 1.15e5 | 1.04e5 | 89475 | 1.27e5 | 8925 | inactive
Fatp2 (Fatty acid transport protein 2) | 2 | 1.80e5 | 1.67e5 | 1.41e5 | 1.47e5 | 13380 | inactive
Fatp2 (Fatty acid transport protein 2) | 3 | 1.68e5 | 1.37e5 | 1.44e5 | 1.35e5 | 12040 | inactive
CG6209 | 1 | 96485 | 1.20e5 | 1.35e5 | 1.04e5 | 9995 | inactive
CG4582 | 1 | 2.10e5 | 1.74e5 | 2.59e5 | 1.78e5 | 14165 | inactive
Lasp | 1 | 1.24e5 | 67920 | 1.03e5 | 82490 | 8035 | inactive
GluProRS (Glutamyl-prolyl-tRNA synthetase) | 1 | 1.30e5 | 1.34e5 | 1.81e5 | 2.16e5 | 9770 | inactive
RhoGAP19D (Rho GTPase activating protein at 19D) | 1 | 1.41e5 | 1.43e5 | 1.12e5 | 71945 | 9830 | inactive
RhoGAP19D (Rho GTPase activating protein at 19D) | 2 | 98935 | 83580 | 95460 | 1.30e5 | 9820 | inactive
AP-1gamma (Adaptor Protein complex 1, gamma subunit) | 1 | 97115 | 96050 | 1.29e5 | 92340 | 6920 | inactive
CG9016 | 1 | 1.82e5 | 1.25e5 | 1.90e5 | 1.04e5 | 10220 | inactive
CG16995 | 1 | 1.21e5 | 1.30e5 | 1.29e5 | 71555 | 10670 | inactive
ThrRS (Threonyl-tRNA synthetase) | 1 | 1.91e5 | 1.42e5 | 1.52e5 | 1.78e5 | 13780 | inactive
Fbp2 (Fat body protein 2) | 1 | 1.87e5 | 2.56e5 | 1.70e5 | 2.21e5 | 15685 | inactive
CG13404 | 1 | 1.12e5 | 99380 | 1.54e5 | 99695 | 15055 | inactive
CG7737 | 1 | 2.16e5 | 2.10e5 | 2.13e5 | 1.86e5 | 15785 | inactive
Pdi (Protein disulfide isomerase) | 1 | 1.69e5 | 1.44e5 | 2.27e5 | 1.93e5 | 5550 | inactive
CG30259 | 1 | 1.60e5 | 1.61e5 | 1.53e5 | 1.14e5 | 10550 | inactive
CG30259 | 2 | 1.93e5 | 1.88e5 | 2.15e5 | 1.74e5 | 12830 | inactive
CG13168 | 1 | 94045 | 1.22e5 | 1.26e5 | 1.14e5 | 9210 | inactive
gdl-ORF39 + gdl | 1 | 1.73e5 | 1.36e5 | 2.63e5 | 1.76e5 | 11065 | inactive
Kua | 1 | 62510 | 47230 | 46000 | 47405 | 3095 | inactive
CG32050 (retired record) | 1 | 1.09e5 | 77470 | 67140 | 66325 | 8680 | inactive
CG10147 | 1 | 2.48e5 | 2.68e5 | 3.88e5 | 2.84e5 | 14920 | inactive
CG15395 | 1 | 1.02e5 | 1.23e5 | 88775 | 52815 | 8882 | inactive
CG31815 | 1 | 49720 | 71350 | 70055 | 72880 | 4820 | inactive
dy (dusky) | 1 | 1.30e5 | 1.41e5 | 1.85e5 | 2.15e5 | 7710 | inactive
CG13409 | 1 | 1.63e5 | 1.48e5 | 1.88e5 | 1.47e5 | 11485 | inactive
CG31523 | 1 | 1.76e5 | 1.91e5 | 2.36e5 | 1.93e5 | 15760 | inactive
CG31523 | 2 | 1.24e5 | 1.25e5 | 1.13e5 | 1.15e5 | 8365 | inactive
CG6023 | 1 | 90485 | 89045 | 83380 | 55870 | 7628 | inactive
CG32276 | 1 | 2.38e5 | 2.31e5 | 2.16e5 | 1.85e5 | 18910 | inactive
otu (ovarian tumor) | 1 | 1.68e5 | 1.53e5 | 2.79e5 | 2.57e5 | 11655 | inactive
SLIRP2 (SRA stem-loop interacting RNA binding protein 2) | 1 | 81625 | 93625 | 70455 | 65140 | 4950 | inactive
wcy (wacky) | 1 | 92195 | 75525 | 62945 | 46025 | 5582 | inactive
CG14506 | 1 | 1.69e5 | 1.47e5 | 1.83e5 | 1.99e5 | 12150 | inactive
Gr36c (Gustatory receptor 36c) | 1 | 1.06e5 | 97935 | 1.42e5 | 1.38e5 | 9130 | inactive
CG13579 | 1 | 2.70e5 | 2.25e5 | 1.87e5 | 1.84e5 | 17200 | inactive
CG13766 | 1 | 2.12e5 | 1.62e5 | 1.95e5 | 1.68e5 | 11255 | inactive
Dh31 (Diuretic hormone 31) | 1 | 1.69e5 | 1.96e5 | 1.02e5 | 1.27e5 | 20068 | inactive
CG13067 | 1 | 1.72e5 | 1.33e5 | 1.68e5 | 1.74e5 | 6925 | inactive
CG31445 | 1 | 2.05e5 | 2.05e5 | 2.65e5 | 2.14e5 | 14665 | inactive
CG7384 | 1 | 2.90e5 | 2.71e5 | 2.25e5 | 2.47e5 | 21800 | inactive
CG11262 | 1 | 1.50e5 | 1.60e5 | 2.09e5 | 1.70e5 | 8860 | inactive
Cpr72Ea (Cuticular protein 72Ea) | 1 | 1.43e5 | 1.25e5 | 69820 | 91655 | 10140 | inactive
sav (salvador) | 1 | 2.14e5 | 1.84e5 | 2.38e5 | 2.52e5 | 16690 | inactive
sav (salvador) | 2 | 1.95e5 | 1.80e5 | 2.37e5 | 2.02e5 | 14855 | inactive
Sply (Sphingosine-1-phosphate lyase) | 1 | 1.49e5 | 1.66e5 | 2.48e5 | 2.40e5 | 13455 | inactive
CG3603 | 1 | 1.07e5 | 1.03e5 | 1.55e5 | 2.33e5 | 7840 | inactive
crol (crooked legs) | 1 | 2.18e5 | 1.99e5 | 2.80e5 | 2.36e5 | 18800 | active
Mal-A1 (Maltase A1) | 1 | 1.50e5 | 1.91e5 | 2.25e5 | 2.50e5 | 15090 | inactive
mas (masquerade) | 1 | 1.15e5 | 1.20e5 | 87900 | 35005 | 12620 | inactive
CG31709 | 1 | 1.42e5 | 1.12e5 | 1.79e5 | 1.25e5 | 12520 | inactive
CG6051 | 1 | 1.20e5 | 1.59e5 | 1.69e5 | 1.74e5 | 11715 | inactive
Setx (Senataxin) | 1 | 3.23e5 | 2.93e5 | 4.09e5 | 4.22e5 | 26875 | inactive
hfp (half pint) | 1 | 82125 | 99790 | 1.42e5 | 1.73e5 | 4675 | inactive
hfp (half pint) | 2 | 1.11e5 | 1.06e5 | 1.28e5 | 1.89e5 | 4800 | inactive
CG5126 | 1 | 1.43e5 | 1.54e5 | 1.18e5 | 1.20e5 | 10545 | inactive

Called active, among the entries above:
target | dsRNA no. | induced reporter light, run 1, well a | induced reporter light, run 1, well b | control promoter light, run 1, well a | control promoter light, run 1, well b | uninduced reporter light, run 1, well a | activity call
crol (crooked legs) | 1 | 2.18e5 | 1.99e5 | 2.80e5 | 2.36e5 | 18800 | active
